Measured values as given in PMC7592211.
These are yes or no findings as the source states them, for the method shown. Binding seen in cells or lysates may run through a third protein. Some results given as binding are weak or reduced against the parent protein; the word gives no strength.

Protein sequences, listed by entry. Tags and fused reporters are not part of them.
UniProt P15682: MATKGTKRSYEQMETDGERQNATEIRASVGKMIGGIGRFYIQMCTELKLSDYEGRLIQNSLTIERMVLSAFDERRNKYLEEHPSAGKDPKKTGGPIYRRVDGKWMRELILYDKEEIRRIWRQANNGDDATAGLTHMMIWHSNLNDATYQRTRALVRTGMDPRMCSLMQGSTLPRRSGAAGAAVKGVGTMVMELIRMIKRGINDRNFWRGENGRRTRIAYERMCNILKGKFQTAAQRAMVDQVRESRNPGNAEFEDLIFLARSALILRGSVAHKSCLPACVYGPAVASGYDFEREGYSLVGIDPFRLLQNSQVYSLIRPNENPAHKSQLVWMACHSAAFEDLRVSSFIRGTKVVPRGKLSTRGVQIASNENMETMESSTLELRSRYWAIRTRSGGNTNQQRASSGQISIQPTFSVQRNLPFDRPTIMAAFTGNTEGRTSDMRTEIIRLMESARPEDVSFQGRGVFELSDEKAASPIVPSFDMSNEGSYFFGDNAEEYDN

Target: nucleoprotein (NP) of influenza A virus A/WSN/1933(H1N1) (influenza A virus A/WSN/1933(H1N1)) (UniProt P15682)
Test: co-IP

Row | Binder | binding
1 | human MxB, wild type (protein, UniProt P20592 1-715) MSKAHKPWPYRRRSQFSSRKYLKKEMNSFQQQPPPFGTVPPQMMFPPNWQGAEKDAAFLAKDFNFLTLNNQPPPGNRSQPRAMGPENNLYSQYEQKVRPCIDLIDSLRALGVEQDLALPAIAVIGDQSSGKSSVLEALSGVALPRGSGIVTRCPLVLKLKKQPCEAWAGRISYRNTELELQDPGQVEKEIHKAQNVMAGNGRGISHELISLEITSPEVPDLTIIDLPGITRVAVDNQPRDIGLQIKALIKKYIQRQQTINLVVVPCNVDIATTEALSMAHEVDPEGDRTIGILTKPDLMDRGTEKSVMNVVRNLTYPLKKGYMIVKCRGQQEITNRLSLAEATKKEITFFQTHPYFRVLLEEGSATVPRLAERLTTELIMHIQKSLPLLEGQIRESHQKATEELRRCGADIPSQEADKMFFLIEKIKMFNQDIEKLVEGEEVVRENETRLYNKIREDFKNWVGILATNTQKVKNIIHEEVEKYEKQYRGKELLGFVNYKTFEIIVHQYIQQLVEPALSMLQKAMEIIQQAFINVAKKHFGEFFNLNQTVQSTIEDIKVKHTAKAENMIQLQFRMEQMVFCQDQIYSVVLKKVREEIFNPLGTPSQNMKLNSHFPSNESSVSSFTEIGIHLNAYFLETSKRLANQIPFIIQYFMLRENGDSLQKAMMQILQEKNRYSWLLQEQSETATKRRILKERIYRLTQARHALCQFSSKEIH | binds
2 | human MxA, wild type (protein, UniProt P20591 1-662) MVVSEVDIAKADPAAASHPLLLNGDATVAQKNPGSVAENNLCSQYEEKVRPCIDLIDSLRALGVEQDLALPAIAVIGDQSSGKSSVLEALSGVALPRGSGIVTRCPLVLKLKKLVNEDKWRGKVSYQDYEIEISDASEVEKEINKAQNAIAGEGMGISHELITLEISSRDVPDLTLIDLPGITRVAVGNQPADIGYKIKTLIKKYIQRQETISLVVVPSNVDIATTEALSMAQEVDPEGDRTIGILTKPDLVDKGTEDKVVDVVRNLVFHLKKGYMIVKCRGQQEIQDQLSLSEALQREKIFFENHPYFRDLLEEGKATVPCLAEKLTSELITHICKSLPLLENQIKETHQRITEELQKYGVDIPEDENEKMFFLIDKVNAFNQDITALMQGEETVGEEDIRLFTRLRHEFHKWSTIIENNFQEGHKILSRKIQKFENQYRGRELPGFVNYRTFETIVKQQIKALEEPAVDMLHTVTDMVRLAFTDVSIKNFEEFFNLHRTAKSKIEDIRAEQEREGEKLIRLHFQMEQIVYCQDQVYRGALQKVREKELEEEKKKKSWDFGAFQSSSATDSSMEEIFQHLMAYHQEASKRISSHIPLIIQFFMLQTYGQQLQKAMLQLLQDKDTYSWLLKERSDTSDKRKFLKERLARLTQARRRLAQFPG | no binding
